The text below walks through data of paper PMC12520357 (2025).

Chains of the proteins cited; added tags and fusions are not shown.
UniProt P32598: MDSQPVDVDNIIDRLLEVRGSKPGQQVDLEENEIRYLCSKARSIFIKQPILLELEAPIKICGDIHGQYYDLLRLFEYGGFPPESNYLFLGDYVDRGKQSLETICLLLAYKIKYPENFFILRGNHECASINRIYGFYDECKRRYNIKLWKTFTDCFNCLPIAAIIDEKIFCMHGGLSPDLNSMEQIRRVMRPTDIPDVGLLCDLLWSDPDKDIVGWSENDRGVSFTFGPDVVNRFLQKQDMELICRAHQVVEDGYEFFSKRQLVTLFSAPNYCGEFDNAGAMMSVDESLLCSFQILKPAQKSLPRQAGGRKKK

No constants are given. Whether binding was seen depends on the method and setting. Binding seen in cells or lysates may run through a third protein. Here binding means that the protein was enriched with, or labelled near, the bait; the list need not be complete. Sequences can lack the tags named with a protein.

Sequences and labels used below:
T1: Reg1-FLAG (wild type) (S. cerevisiae) (UniProt Q00816)
T1 sequence: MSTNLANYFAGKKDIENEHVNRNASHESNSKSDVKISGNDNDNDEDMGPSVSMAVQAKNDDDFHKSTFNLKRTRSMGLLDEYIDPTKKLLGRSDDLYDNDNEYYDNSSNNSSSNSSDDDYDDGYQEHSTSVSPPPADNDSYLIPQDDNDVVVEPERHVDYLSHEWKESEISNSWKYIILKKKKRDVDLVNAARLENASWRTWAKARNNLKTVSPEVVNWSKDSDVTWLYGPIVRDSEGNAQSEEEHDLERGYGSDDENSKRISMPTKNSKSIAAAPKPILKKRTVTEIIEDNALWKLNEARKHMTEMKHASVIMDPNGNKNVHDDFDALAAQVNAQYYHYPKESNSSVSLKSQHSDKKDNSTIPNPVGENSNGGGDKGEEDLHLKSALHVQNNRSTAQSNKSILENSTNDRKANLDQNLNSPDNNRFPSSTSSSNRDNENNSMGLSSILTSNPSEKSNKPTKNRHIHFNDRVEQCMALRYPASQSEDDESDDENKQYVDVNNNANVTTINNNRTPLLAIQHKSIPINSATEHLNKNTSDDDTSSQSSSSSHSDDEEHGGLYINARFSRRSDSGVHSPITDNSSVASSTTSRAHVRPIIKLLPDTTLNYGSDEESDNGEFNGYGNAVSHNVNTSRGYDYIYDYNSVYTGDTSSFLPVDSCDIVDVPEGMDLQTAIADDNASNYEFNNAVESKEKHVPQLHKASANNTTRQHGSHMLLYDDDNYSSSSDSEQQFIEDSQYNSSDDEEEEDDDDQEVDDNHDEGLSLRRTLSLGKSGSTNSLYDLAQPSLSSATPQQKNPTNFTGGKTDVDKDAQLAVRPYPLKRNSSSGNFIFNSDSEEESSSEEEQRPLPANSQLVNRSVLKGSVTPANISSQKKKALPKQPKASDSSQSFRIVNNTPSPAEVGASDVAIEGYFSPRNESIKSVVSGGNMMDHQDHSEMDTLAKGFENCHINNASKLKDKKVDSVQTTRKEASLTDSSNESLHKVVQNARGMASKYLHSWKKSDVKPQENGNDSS

B1: Snf1 (protein, UniProt P06782 1-633)
chain: MSSNNNTNTAPANANSSHHHHHHHHHHHHHGHGGSNSTLNNPKSSLADGAHIGNYQIVKTLGEGSFGKVKLAYHTTTGQKVALKIINKKVLAKSDMQGRIEREISYLRLLRHPHIIKLYDVIKSKDEIIMVIEYAGNELFDYIVQRDKMSEQEARRFFQQIISAVEYCHRHKIVHRDLKPENLLLDEHLNVKIADFGLSNIMTDGNFLKTSCGSPNYAAPEVISGKLYAGPEVDVWSCGVILYVMLCRRLPFDDESIPVLFKNISNGVYTLPKFLSPGAAGLIKRMLIVNPLNRISIHEIMQDDWFKVDLPEYLLPPDLKPHPEEENENNDSKKDGSSPDNDEIDDNLVNILSSTMGYEKDEIYESLESSEDTPAFNEIRDAYMLIKENKSLIKDMKANKSVSDELDTFLSQSPPTFQQQSKSHQKSQVDHETAKQHARRMASAITQQRTYHQSPFMDQYKEEDSTVSILPTSLPQIHRANMLAQGSPAASKISPLVTKKSKTRWHFGIRSRSYPLDVMGEIYIALKNLGAEWAKPSEEDLWTIKLRWKYDIGNKTNTNEKIPDLMKMVIQLFQIETNNYLVDFKFDGWESSYGDDTTVSNISEDEMSTFSAYPFLHLTTKLIMELAVNSQSN
B2: Rod1 (protein, UniProt Q02805 1-837)
chain: MFSSSSRPSKEPLLFDIRLRNLDNDVLLIKGPPDEASSVLLSGTIVLSITEPIQIKSLALRLFGRLRLNIPTVLQTVHGPHKRYSKFERNIYSHFWDDFNIKSYFQNLYDNHNNGKITISSKSSTNLAALPKRKRALSTASLISSNGQTSASKNYHTLVKGNYEFPFSAIIPGSLVESVEGLPNAAVTYALEATIERPKQPDLICKKHLRVIRTLAIDAVELSETVSVDNSWPEKVDYTISIPTKAIAIGSSTMINILIVPILKGLKLGPVRISLVENSQYCGSYGGVINQERMVAKLKLKDPLKHVAQIKKKRSLNEAADEGVDTDTGEFQDKWEVRALLNIPASLTKCSQDCRILSNIKVRHKIKFTISLLNPDGHISELRAALPVQLFISPFVPVNVKTSDVIERTLKTFGPSYQVTSQHDNSFSSKNFVDDSEEDVIFQRSASALQLSSMPTIVSGSTLNINSTDAEATAVADTTMVTSLMVPPNYGNHVYDRVYGEVTNEDETSASASSSAVESQAIHNIQNLYISDSNNSNNPILAPNPQIKIEDDSLNNCDSRGDSVNNSNLNLVNSNLTISENWNNNSPSANRYNNIINAGLNSPSLTPSFAHLSRRNSYSRQTSSTSLKNDLELTDLSRVPSYDKAMKSDMIGEDLPPAYPEEELGVQENKKIELERPQILHHKSTSSLLPLPGSSKSSNNLKRSSSRTHLSHSPLPRNNSGSSVSLQQLARNNTDSSFNLNLSFTSAKSSTGSRHFPFNMTTSFTSNSSSKNNSHFDKTDSTSDANKPREEENYTSATHNRRSRSSSVRSNNSNSPLRQGTGSFANLMEMFTKRDRS

The test has as its target T1, Reg1-FLAG (wild type) (S. cerevisiae). The test can be described thus: affinity purification with mass spectrometry; Reg1-FLAG (WT or W165G) precipitated on anti-FLAG M2 agarose from native yeast lysates before and after treatment of the cells with 2DG (10 min in the text, 15' in the legend); label-free quantitative proteomics, n = 4.
On to Glc7 (from UniProt P32598 1-312), for which the binding entry was “binds”.
As for B1, the binding entry is on record as “binds”.
For the molecule B2, the binding result is listed as “binds”.
